From publication PMC9496550 come the findings set out here.

By UniProt entry, the sequences of proteins in these tests, tags left out.
UniProt O15229: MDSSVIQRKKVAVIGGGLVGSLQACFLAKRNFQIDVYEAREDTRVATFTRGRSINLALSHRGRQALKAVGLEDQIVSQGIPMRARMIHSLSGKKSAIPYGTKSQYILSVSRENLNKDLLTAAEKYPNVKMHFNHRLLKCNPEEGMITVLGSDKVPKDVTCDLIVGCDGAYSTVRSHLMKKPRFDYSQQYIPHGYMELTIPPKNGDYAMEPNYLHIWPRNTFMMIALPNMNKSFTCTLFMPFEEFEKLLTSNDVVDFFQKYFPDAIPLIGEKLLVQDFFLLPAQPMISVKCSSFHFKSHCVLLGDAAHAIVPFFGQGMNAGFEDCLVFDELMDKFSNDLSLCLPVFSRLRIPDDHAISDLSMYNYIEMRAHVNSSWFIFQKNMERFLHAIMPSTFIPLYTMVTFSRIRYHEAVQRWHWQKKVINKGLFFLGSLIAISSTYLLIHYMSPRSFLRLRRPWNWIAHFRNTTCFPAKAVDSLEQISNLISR
UniProt P42858: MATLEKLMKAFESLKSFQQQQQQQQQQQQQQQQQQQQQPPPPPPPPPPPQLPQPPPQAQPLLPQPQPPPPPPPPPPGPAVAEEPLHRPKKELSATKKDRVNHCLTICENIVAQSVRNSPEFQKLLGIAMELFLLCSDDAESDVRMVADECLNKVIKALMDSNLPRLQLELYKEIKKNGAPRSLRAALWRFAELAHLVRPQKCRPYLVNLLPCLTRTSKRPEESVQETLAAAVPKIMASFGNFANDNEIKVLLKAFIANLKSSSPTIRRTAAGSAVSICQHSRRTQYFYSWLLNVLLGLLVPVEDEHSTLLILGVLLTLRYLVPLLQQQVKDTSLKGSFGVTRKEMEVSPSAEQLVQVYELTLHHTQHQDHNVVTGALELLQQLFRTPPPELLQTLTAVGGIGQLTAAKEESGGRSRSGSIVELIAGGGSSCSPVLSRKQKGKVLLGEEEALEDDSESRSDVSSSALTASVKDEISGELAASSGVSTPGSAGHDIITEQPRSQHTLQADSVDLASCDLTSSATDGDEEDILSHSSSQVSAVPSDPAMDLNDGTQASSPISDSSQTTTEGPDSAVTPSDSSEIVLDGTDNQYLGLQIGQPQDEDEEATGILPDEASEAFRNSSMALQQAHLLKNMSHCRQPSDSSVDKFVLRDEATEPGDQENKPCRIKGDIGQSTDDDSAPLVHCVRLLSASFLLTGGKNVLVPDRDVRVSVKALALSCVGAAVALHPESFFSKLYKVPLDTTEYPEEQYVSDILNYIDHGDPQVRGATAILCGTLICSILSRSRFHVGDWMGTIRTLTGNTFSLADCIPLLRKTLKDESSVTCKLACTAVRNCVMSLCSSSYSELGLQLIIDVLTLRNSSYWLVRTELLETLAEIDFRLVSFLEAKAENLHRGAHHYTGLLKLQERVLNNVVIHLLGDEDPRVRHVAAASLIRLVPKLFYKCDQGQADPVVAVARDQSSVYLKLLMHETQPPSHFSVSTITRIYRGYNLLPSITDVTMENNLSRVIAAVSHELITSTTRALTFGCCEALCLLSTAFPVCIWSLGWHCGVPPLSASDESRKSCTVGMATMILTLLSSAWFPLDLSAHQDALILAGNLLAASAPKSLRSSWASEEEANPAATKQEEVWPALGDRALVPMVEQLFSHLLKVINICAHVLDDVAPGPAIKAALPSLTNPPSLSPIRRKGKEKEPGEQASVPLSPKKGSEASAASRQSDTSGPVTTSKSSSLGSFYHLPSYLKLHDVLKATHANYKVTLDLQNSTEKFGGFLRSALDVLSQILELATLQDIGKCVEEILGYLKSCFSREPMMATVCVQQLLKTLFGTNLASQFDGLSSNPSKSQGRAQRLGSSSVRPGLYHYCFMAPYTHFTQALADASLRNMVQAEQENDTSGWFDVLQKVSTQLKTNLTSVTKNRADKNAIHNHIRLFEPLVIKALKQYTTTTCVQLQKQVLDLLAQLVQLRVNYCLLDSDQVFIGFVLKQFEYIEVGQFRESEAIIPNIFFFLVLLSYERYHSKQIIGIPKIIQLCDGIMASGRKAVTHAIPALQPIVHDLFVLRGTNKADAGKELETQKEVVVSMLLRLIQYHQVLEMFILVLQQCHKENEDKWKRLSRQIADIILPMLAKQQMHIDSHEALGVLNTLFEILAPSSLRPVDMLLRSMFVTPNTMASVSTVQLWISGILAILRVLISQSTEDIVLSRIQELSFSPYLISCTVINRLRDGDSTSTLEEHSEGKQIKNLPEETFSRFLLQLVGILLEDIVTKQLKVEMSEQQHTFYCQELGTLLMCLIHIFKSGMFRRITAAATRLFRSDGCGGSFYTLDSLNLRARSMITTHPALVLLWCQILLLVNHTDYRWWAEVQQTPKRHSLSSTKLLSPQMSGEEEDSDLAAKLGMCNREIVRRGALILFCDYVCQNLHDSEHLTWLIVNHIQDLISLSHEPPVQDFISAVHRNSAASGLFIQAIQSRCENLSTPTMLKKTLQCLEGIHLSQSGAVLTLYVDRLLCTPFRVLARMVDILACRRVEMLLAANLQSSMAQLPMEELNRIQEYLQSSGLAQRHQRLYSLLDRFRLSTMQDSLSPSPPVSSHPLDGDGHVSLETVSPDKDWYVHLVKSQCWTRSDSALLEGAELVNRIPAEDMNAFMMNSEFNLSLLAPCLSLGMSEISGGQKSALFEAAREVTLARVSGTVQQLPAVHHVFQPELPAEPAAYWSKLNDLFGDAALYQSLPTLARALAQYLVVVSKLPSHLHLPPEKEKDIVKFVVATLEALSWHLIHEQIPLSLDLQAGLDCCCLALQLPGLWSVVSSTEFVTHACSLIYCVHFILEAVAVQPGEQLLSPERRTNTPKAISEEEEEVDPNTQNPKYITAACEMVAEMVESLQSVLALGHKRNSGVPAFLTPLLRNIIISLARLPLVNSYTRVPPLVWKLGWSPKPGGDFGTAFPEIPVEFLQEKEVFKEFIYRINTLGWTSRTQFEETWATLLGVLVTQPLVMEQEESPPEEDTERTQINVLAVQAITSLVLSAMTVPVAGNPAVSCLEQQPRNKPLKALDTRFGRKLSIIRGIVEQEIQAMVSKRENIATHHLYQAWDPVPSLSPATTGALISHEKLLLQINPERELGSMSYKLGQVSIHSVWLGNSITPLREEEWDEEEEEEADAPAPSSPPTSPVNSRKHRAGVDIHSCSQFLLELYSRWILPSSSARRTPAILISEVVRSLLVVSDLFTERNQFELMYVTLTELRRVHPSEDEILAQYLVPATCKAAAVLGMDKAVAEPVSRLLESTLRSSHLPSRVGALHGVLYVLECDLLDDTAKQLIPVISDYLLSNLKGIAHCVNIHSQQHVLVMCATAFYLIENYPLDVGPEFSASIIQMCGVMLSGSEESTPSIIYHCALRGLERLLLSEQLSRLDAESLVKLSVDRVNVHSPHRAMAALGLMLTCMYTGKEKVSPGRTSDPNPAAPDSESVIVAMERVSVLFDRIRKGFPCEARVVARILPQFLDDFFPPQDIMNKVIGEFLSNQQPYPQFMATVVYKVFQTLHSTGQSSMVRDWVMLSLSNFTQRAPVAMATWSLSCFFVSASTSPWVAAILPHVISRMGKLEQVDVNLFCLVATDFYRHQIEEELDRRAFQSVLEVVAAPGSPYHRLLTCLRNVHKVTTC

No constants are given. Whether binding was seen depends on the method and setting. Binding seen in cells or lysates may run through a third protein. Some binding calls cover weakened binding; strength is not graded here.

The target in the assay is full length human KMO tagged with RFP (flKMO-RFP) (human) (UniProt O15229). The assay can be described thus: co-IP; RFP-Trap Agarose from lysates of HEK293T cells transfected for 48 h; 10 mM Tris-HCl pH 7.5, 150 mM NaCl, 0.5 mM EDTA, 0.05% n-dodecyl β-D-maltoside; 1 h at 4 °C; blot with anti-HTT.

Turning to “endogenous huntingtin (HTT) (from UniProt P42858 1-3142)”, the binding result is on record as “binds”.
